Data taken from PubChem BioAssay AID1080, deposited by Emory University Molecular Libraries Screening Center (2008).

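A cell line overexpressing EP4 prostanoid receptors, stimulated with a low (about EC15) PGE2 dose; cAMP read by HTRF FRET after a short room-temperature incubation.
Compounds were tested at 20 µM final. A low (about EC15) PGE2 dose was present.
Percent cAMP induction as a fraction of the 1 µM PGE2 response, averaged over three replicates; a higher value means more cAMP.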

Values are in %.
Common to all entries: measured here: EP4 receptor counter-screen.
Part of the compounds only, not a random draw; the main read-out is not listed here.

| Compound | tested on / at | cAMP induction (%) |
|---|---|---|
| `CC1CCC(C(C)C)C(OC(=O)COC(=O)c2ccc(=O)[nH]c2)C1` (stereo unspecified) | percent of 1 uM PGE2 response; plus low (about EC15) PGE2 agonist | -8.057 |
| `CC(C)(C)N(Cc1ccccc1)C(=O)c1ccc(Br)o1` | percent of 1 uM PGE2 response; plus low (about EC15) PGE2 agonist | 1.37 |
| `O=C(Cc1ccc(Cl)cc1)Nc1ccccc1Sc1ccccc1` | percent of 1 uM PGE2 response; plus low (about EC15) PGE2 agonist | -3.137 |
| `CC1(C)Cc2nc3nc(SCC(=O)Nc4ccccc4)nc(N)c3cc2CO1` | percent of 1 uM PGE2 response; plus low (about EC15) PGE2 agonist | 8.667 |
| `CC(C)c1nccn1Cc1ccc(Cl)cc1Cl` | percent of 1 uM PGE2 response; plus low (about EC15) PGE2 agonist | 99.78 |
| `CCC1(CC)Cc2ccccc2-c2nc(NCCO)[nH]c(=O)c21` | percent of 1 uM PGE2 response; plus low (about EC15) PGE2 agonist | -2.433 |
| `CC1CC(C)CN(CC(=O)NC(c2ccccc2)c2ccccc2)C1` (stereo unspecified) | percent of 1 uM PGE2 response; plus low (about EC15) PGE2 agonist | -11.25 |
| `O=C(Nc1ccccc1-c1ccccc1)c1ccc(Br)o1` | percent of 1 uM PGE2 response; plus low (about EC15) PGE2 agonist | -1.057 |
| `O=c1c2ccccc2c(-c2ccccc2)nn1Cc1c(Cl)cccc1Cl` | percent of 1 uM PGE2 response; plus low (about EC15) PGE2 agonist | 5.24 |
| `Clc1ccccc1C1NCc2ccccc2-n2cccc21` (stereo unspecified) | - | 9.58 |
| `Oc1ccccc1-c1nc(N2CCCC2)c2ccccc2n1` | percent of 1 uM PGE2 response; plus low (about EC15) PGE2 agonist | 60.91 |
| `O=P(c1ccccc1)(c1ccccc1)c1nc(-c2ccccc2)oc1NCc1ccccc1` | percent of 1 uM PGE2 response; plus low (about EC15) PGE2 agonist | -13.57 |
| `CCC1CCc2c(sc3ncnc(N4CCOCC4)c23)C1` (stereo unspecified) | percent of 1 uM PGE2 response; plus low (about EC15) PGE2 agonist | 14.29 |
| `COc1ccccc1CN(C)CC(=O)Nc1ccccc1-c1ccccc1` | percent of 1 uM PGE2 response; plus low (about EC15) PGE2 agonist | -14.36 |
| `Cc1ccccc1NC(=O)CSc1nc(COc2ccccc2)nc2ccccc12` | percent of 1 uM PGE2 response; plus low (about EC15) PGE2 agonist | 15.82 |
| `COc1cc(NC(=S)NC(=O)c2cc(C)cc(C)c2)ccc1NC(=O)c1cccs1` | percent of 1 uM PGE2 response; plus low (about EC15) PGE2 agonist | -9.86 |
| `CC1(C)C2CCC1(C)C(OC(=O)CC(=O)O)C2` (stereo unspecified) | percent of 1 uM PGE2 response; plus low (about EC15) PGE2 agonist | 10.27 |
| `CCCCn1c(-c2csc(CCC)c2)n[nH]c1=S` | percent of 1 uM PGE2 response; plus low (about EC15) PGE2 agonist | 9.82 |
| `CCOc1nc(C)cc(C)c1S(=O)(=O)c1ccc(Cl)cc1` | percent of 1 uM PGE2 response; plus low (about EC15) PGE2 agonist | 0.9967 |
| `CCN(CC)S(=O)(=O)c1c(OC)cc(C)c(Cl)c1C` | percent of 1 uM PGE2 response; plus low (about EC15) PGE2 agonist | -1.733 |
| `C=C1CCC2C(CC2(C)C)C(=C)CC/C1=N/O` (stereo unspecified) | percent of 1 uM PGE2 response; plus low (about EC15) PGE2 agonist | 6.873 |
| `Cc1ccccc1-n1c(SCC(=O)N2CCCC2)nnc1-c1ccccn1` | percent of 1 uM PGE2 response; plus low (about EC15) PGE2 agonist | -2.967 |
| `CC(C)CCn1c(Oc2ccc(Cl)cc2)nc2c1c(=O)n(C)c(=O)n2C` | percent of 1 uM PGE2 response; plus low (about EC15) PGE2 agonist | -11.7 |
| `Cc1noc(C)c1CSc1ncnc2sc3c(c12)CCC(C)C3` (stereo unspecified) | percent of 1 uM PGE2 response; plus low (about EC15) PGE2 agonist | -1.35 |
| `Cc1ccc(C2CC2c2n[nH]c(=S)n2-c2ccc(Cl)cc2)cc1` (stereo unspecified) | percent of 1 uM PGE2 response; plus low (about EC15) PGE2 agonist | 9.787 |
| `CCOc1ccccc1Cn1c(=O)oc2ccc(C)cc21` | percent of 1 uM PGE2 response; plus low (about EC15) PGE2 agonist | -3.617 |
| `Nc1ccc(Cl)cc1C(=O)c1ccccc1Cl` | - | 4.977 |
| `C/C(=C\c1ccc(C(=O)O)cc1)c1ccc2c(c1)C(C)(C)CCC2(C)C` | percent of 1 uM PGE2 response; plus low (about EC15) PGE2 agonist | 8.593 |
| `C=CCOc1ccc2c(c1)C(=NO)c1cc(OCC=C)ccc1-2` | percent of 1 uM PGE2 response; plus low (about EC15) PGE2 agonist | 15.6 |